Laboratory results from PubChem BioAssay AID2810 (NMMLSC, 2010).
The other results are listed elsewhere or left out. The main result of the screen is listed elsewhere. These columns were measured beside it and carry no call.

Experiment: modulators of CD8 T cell-vesicle binding, confirmation, cherry-picked primary hits, two concentrations (AID 2810);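 note: lower values mean blocking of vesicle binding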;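 for percent response (vesicle binding): ratio of mean FL2 vesicle stain of CD8+ cells to that row's control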
Conditions: 2C CD8+ T cell-vesicle binding, flow cytometry; for double positive events: CD8+/vesicle+ events
[1] = at 15.4 µM, stronger effect = lower value

SMILES	double positive events (at 7.7 µM)	double positive events [1]	percent response (vesicle binding) (at 7.7 µM)
Cc1ccccc1NS(=O)(=O)c1ccc(NC(=O)CSCc2ccc(Br)cc2)cc1	8.1%	26%	308%
CCOC(=O)CSc1nc(COc2ccccc2)nc2ccccc12	12%	12.3%	198%
CN(CC(=O)Nc1cc(S(=O)(=O)N2CCCC2)ccc1Cl)Cc1ccc2c(c1)OCO2	26.3%	8.1%	403%
COc1cc(C(=O)NC(=S)Nc2ccc3oc(=O)ccc3c2)cc(OC)c1OC	28.6%	24.3%	312%
O=C(CCc1nc2ccccc2c(=O)[nH]1)N1CCCc2ccccc21	16.5%	35.1%	183%
C[C@H](CO)N1C[C@H](C)[C@@H](CN(C)C(=O)Nc2ccc(C(F)(F)F)cc2)Oc2c(NC(=O)Nc3ccccc3)cccc2C1=O	13.5%	11%	328%
O=C(COC(=O)c1cncc(Br)c1)Nc1ccc(N2CCCCC2)cc1	8.7%	10.2%	383%
O=C(NCC(c1cccs1)N1CCc2ccccc21)c1ccccc1 (stereo not given)	18.4%	19.6%	224%
C=CCN1C(=O)C(Cc2ccc(F)cc2)S/C1=N/N=C/c1ccco1 (stereo not given)	21.6%	31.5%	296%
CCc1c(C)sc(NC(=O)c2cc(-c3cc(OC)ccc3OC)on2)c1C#N	17%	22.6%	141%
COC(=O)N/N=C/c1cn(CC(C)COc2ccccc2)c2ccccc12 (stereo not given)	15.6%	13.6%	153%
Cc1sc2nc(COC(=O)c3ccc(N4CCCC(C)C4)c([N+](=O)[O-])c3)[nH]c(=O)c2c1C (stereo not given)	33.6%	32%	195%
CCCCNc1nc(N)ncc1[N+](=O)[O-]	12.9%	22.4%	503%
CCn1cc(C(=O)O)c(=O)c2cc(F)c(N3CCN(C(=S)NC(=O)c4ccccc4)CC3)cc21	14.9%	35.7%	203%
Cc1nc(Cl)c(C(=O)NC(=O)NCc2ccccc2)c(C)c1Cl	43.1%	14.3%	150%
CCN(CC(=O)Nc1ccc2c(c1)OCCO2)C(=O)CCc1ccccc1Cl	12.1%	20.8%	402%
O=C(COC(=O)c1ccc(F)cc1)NC1CC1	21.2%	14.8%	413%
COCCN(C(=O)CSc1nncn1-c1ccccc1)c1c(N)n(Cc2ccccc2)c(=O)[nH]c1=O	14.3%	18.4%	126%
Cc1ccc(NC(=O)CN(C)C(=O)Cn2cc(C(F)(F)F)ccc2=O)cc1	19.4%	15.7%	612%
CCCOc1ccc(N2C(=O)CC(N3CCOCC3)C2=O)cc1 (stereo not given)	17.3%	29.6%	218%
Cc1ccc(NC(=O)C2CC(=O)n3c(nc4ccccc43)N2)cc1 (stereo not given)	14.8%	14.3%	399%

SMILES	double positive events (at 7.7 µM)	double positive events [1]	percent response (vesicle binding) (at 7.7 µM)
O=S(=O)(Nc1cccc2cccnc12)c1ccc(S(=O)(=O)N2CCCC2)cc1	22.4%	8.8%	787%
O=C(NC(NC(=S)Nc1ccccc1C(=O)O)C(Cl)(Cl)Cl)c1ccco1 (stereo not given)	11.5%	27.9%	252%
CCOC(=O)N1CCN(c2nc(-c3ccco3)cc(C(F)(F)F)n2)CC1	17.7%	8.1%	257%
CCCCCC(=O)NCC(C)NC(=O)CCCCC (stereo not given)	24%	20.3%	421%
Cc1ccc2[nH]cc(CCNC(=O)/C=C/c3ccco3)c2c1	18.2%	13.8%	253%
COc1ccc(OC(C)C(=O)N2CCOCC2)cc1 (stereo not given)	25.2%	13.9%	376%
Cc1ccc(NC(=O)CSc2nnc(-c3cccnc3)o2)c(C)c1	16.9%	14%	196%
CC1CCN(C(=O)c2ccc(S(=O)(=O)Cc3ccccc3F)c([N+](=O)[O-])c2)CC1	11.7%	38%	240%
Cc1ccc(C)c(NC(=O)CN(C)C(=O)c2cc3c(s2)CCCCC3)c1	20.2%	8.6%	572%
CC1CCCCC1NC(=O)COC(=O)c1ccc2ncsc2c1 (stereo not given)	29.9%	4.3%	235%
Cc1nn(CC(=O)Nc2ccc3c(c2)nc(CN2CCCCC2)n3C)c(=O)c2ccccc12	34.9%	22.2%	156%
O=C(CNC(=O)c1ccccc1F)NCCc1ccccc1F	10.2%	30.9%	350%
CCCCNC(=O)c1c(CSc2ccccc2)noc1C(=O)NCc1ccccc1	19.2%	19.6%	159%
O=C(NCc1ccc(Cl)cc1)c1ccc(CNc2c(N3CCCC3)c(=O)c2=O)cc1	16.9%	13.1%	243%
CCCNC(=O)C(Cc1ccccc1F)NC(=O)c1ccc(C#N)cc1 (stereo not given)	15%	10.2%	480%
CC(C)c1ccc(NC(=O)c2cc(S(=O)(=O)NCC3COc4ccccc4O3)ccc2F)cc1 (stereo not given)	24.5%	26.2%	196%
CC(=O)c1cccc(NC(=O)c2ccncc2)c1	33.4%	3.1%	568%
CCOC(=O)[C@H]1[C@H]2COc3ccc(Cl)cc3[C@@H]2N2C(=O)CN(Cc3ccco3)C(=O)[C@@]12C	11.4%	15.9%	443%
NS(=O)(=O)c1ccc(CNC(=O)CSc2ccccc2)cc1	14.3%	13%	163%
CCc1cc(C(=O)Nc2cc(S(=O)(=O)N(CC)CC)ccc2N2CCOCC2)sc1C	8.8%	25.2%	163%
NC(=O)c1c(NC(=O)c2cccnc2Cl)sc2c1CCCC2	8.6%	25.5%	98.2%

Three entries from above, in markdown:

| SMILES | double positive events (at 7.7 µM) | double positive events [1] | percent response (vesicle binding) (at 7.7 µM) |
| --- | --- | --- | --- |
| O=C(CNC(=O)c1ccccc1F)NCCc1ccccc1F | 10.2% | 30.9% | 350% |
| CCCCNC(=O)c1c(CSc2ccccc2)noc1C(=O)NCc1ccccc1 | 19.2% | 19.6% | 159% |
| CCCNC(=O)C(Cc1ccccc1F)NC(=O)c1ccc(C#N)cc1 (stereo not given) | 15% | 10.2% | 480% |

Additional entries

SMILES	double positive events (at 7.7 µM)	double positive events [1]	percent response (vesicle binding) (at 7.7 µM)
Nc1c(C(=O)CSc2nnc(-c3ccccc3F)o2)c(=O)[nH]c(=O)n1C1CC1	7.6%	13.2%	240%
O=C(c1cc2cc(F)ccc2[nH]1)N1CCCC(Nc2ccc(F)cc2)C1 (stereo not given)	41.2%	26.8%	543%
Cc1nnn(C23CC4CC(CC(CC(=O)Nc5ccc(C)c(Cl)c5)(C4)C2)C3)n1	10%	15.1%	65.9%
CCC(NC(=O)C1CCC1)c1ccc(C)cc1 (stereo not given)	5.4%	33.3%	112%
Cc1ccc(C(C)C)c(OCCNS(C)(=O)=O)c1	10.3%	38.1%	96.8%
CCCNC(=O)CN1CCN(S(=O)(=O)c2ccc(Br)s2)CC1	12.2%	25.8%	380%
O=C(c1ccccc1F)N1CCc2ccccc21	37%	19.5%	
COc1ccccc1C(=O)n1nc(-c2ccco2)nc1SC	18.1%	29.4%	226%
CCCCN(C(=O)C1CCC1)c1c(N)n(CC(C)C)c(=O)[nH]c1=O	11.7%	18.2%	163%
COc1cc(OC)c2cc(C(=O)N[C@H](C(=O)N3CCC[C@H]3C(=O)O)C(C)C)n(C)c2c1	23.1%	3.1%	367%
CC(C)CCNC(=O)[C@H](Cc1ccccc1)N1Cc2ccccc2C1=O	15.9%	21.9%	172%
COc1ccc(CC(=O)NC(=S)Nc2cccc(CO)c2)cc1	28.3%	27.9%	277%
Cn1c(N)c(C(=O)COC(=O)CNC(=O)c2ccccc2F)c(=O)n(C)c1=O	13.3%	20.1%	237%
N/C(CC(=O)NCCOc1ccccc1)=N\O	29.7%	16.7%	271%
O=C(Nc1ccc2c(c1)oc1ccccc12)c1cccnc1	12.5%	30.3%	375%
Fc1ccc(-c2noc(-c3ccc4c(c3)CCO4)n2)cc1	23.1%	19.4%	618%
COc1ccc(/C=N/Nc2ncnc3sc4c(c23)CCCC4)cc1OC	33.8%	16.6%	713%
COc1ccc(Nc2ccccc2N)cc1	6.2%	21.4%	236%
CC(=O)OC[C@]12CC[C@H]3[C@@](C)(CC[C@H]4C(C)(C)CCC[C@]34C)[C@@H]1C[C@@H](C1=CC(=O)O[C@@H]1OC(C)=O)O2	33.5%	8.6%	312%
Cc1cc2nncn2c2ccccc12	18.9%	9.7%	528%
CC(=O)N1N=C(c2cccs2)CC1c1cc2cc(C)ccc2nc1Cl (stereo not given)	22.1%	25.3%	226%

SMILES	double positive events (at 7.7 µM)	double positive events [1]	percent response (vesicle binding) (at 7.7 µM)
O=C(/C=C/c1cccs1)NNC(=O)c1ccccc1	21%	31.2%	265%
Cc1ccc(NC2=CC(=O)C(=O)c3ccccc32)c(C)c1	11.7%	32.9%	332%
Cc1cc(C(=O)N/N=C/c2cccc([N+](=O)[O-])c2)c2ccccc2n1	8.4%	26.9%	225%
O=C(NC1CCCCC1)C(=O)c1c[nH]c2ccccc12	33.4%	16.7%	148%
O=C(NC(Cc1cccc(F)c1)C(=O)O)C1CCCCC1 (stereo not given)	39.8%	13.5%	320%
CCN(CC)c1ccc2c(Cl)cc(=O)oc2c1	11.2%	27.8%	303%
Cc1nnc(SCC(=O)NC2CC2)n1CCc1ccccc1	9%	15.6%	436%
CC(C)(C)OC(=O)NCCCCCc1nnc(SCc2ccc(F)cc2)o1	40.4%	19.9%	471%
Cc1cc(N2CCN(C)CC2)nc2ccc(NC(=S)N3CCC4(CC3)OCCO4)cc12	14.8%	2.8%	135%
Cn1c(=O)c2c(nc(SCC(=O)c3ccccc3F)n2C)n(C)c1=O	10.4%	8%	156%
CCN(CC)C(=O)c1cccc2c1C(=O)c1ccccc1-2	19.5%	18.7%	215%
Fc1ccc(C2CC(c3ccco3)n3ncnc3N2)cc1 (stereo not given)	9.8%	13.2%	161%
COc1ccc2oc(=O)c(-c3csc(Nc4cccc(O)c4)n3)cc2c1	24.5%	18.7%	308%
Cc1cc(Cl)ccc1NC(=O)COC(=O)CCNS(=O)(=O)c1ccccc1	10.7%	24.6%	103%
CN(C)c1ccc(/C=N/NC(=O)c2ccco2)cc1	6.6%	16.3%	276%
CCN(CC)C(=O)[C@H]1CC(CC(=O)NC(C)(C)C)C(=O)N2CCc3c([nH]c4ccccc34)[C@]12C (stereo not given in full)	22.2%	24.2%	714%
CCOc1ccc(S(=O)(=O)N2CCOCC2)cc1NC(=O)CSCC(=O)Nc1cccc(C)c1	31.3%	14.8%	482%
O=C(COc1ccccc1F)NCC(c1ccco1)N1CCCC1 (stereo not given)	26.5%	11.1%	322%
FC(F)(F)c1nnc2sc(-c3cccs3)nn12	19.2%	21.6%	152%
